Measured values taken from paper PMC13290226.
No constants are given. Whether binding was seen depends on the method and setting. In cells and extracts the contact can be indirect. These calls come from enrichment with a bait or labelling near it, and not all partners need be listed. Tags and fused reporters may be left off the sequences shown.

Protein sequences, listed by entry. Tags and fused reporters are not part of them.
UniProt A0A2K3DQG3: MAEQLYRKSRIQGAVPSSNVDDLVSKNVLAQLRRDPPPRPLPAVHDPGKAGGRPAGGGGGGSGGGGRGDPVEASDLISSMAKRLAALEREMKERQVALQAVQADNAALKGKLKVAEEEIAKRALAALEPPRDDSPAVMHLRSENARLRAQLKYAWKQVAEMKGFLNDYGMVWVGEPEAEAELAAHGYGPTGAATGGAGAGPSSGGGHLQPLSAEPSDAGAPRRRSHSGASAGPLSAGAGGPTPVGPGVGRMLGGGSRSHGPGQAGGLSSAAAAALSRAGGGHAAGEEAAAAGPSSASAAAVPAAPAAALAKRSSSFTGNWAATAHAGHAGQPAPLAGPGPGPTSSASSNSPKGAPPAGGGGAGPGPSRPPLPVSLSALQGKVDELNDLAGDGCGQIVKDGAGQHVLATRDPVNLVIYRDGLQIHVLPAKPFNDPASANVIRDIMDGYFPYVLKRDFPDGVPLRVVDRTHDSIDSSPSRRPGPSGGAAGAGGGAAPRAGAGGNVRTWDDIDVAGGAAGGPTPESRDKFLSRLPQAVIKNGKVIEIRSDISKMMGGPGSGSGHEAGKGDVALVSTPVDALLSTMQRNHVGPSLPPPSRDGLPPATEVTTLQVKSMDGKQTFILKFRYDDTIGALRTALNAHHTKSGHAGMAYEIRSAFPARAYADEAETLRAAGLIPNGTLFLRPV

Molecular target: T1, His-tagged CrIFT172_(968-C) (Chlamydomonas reinhardtii) (UniProt Q5DM57)
T1 sequence: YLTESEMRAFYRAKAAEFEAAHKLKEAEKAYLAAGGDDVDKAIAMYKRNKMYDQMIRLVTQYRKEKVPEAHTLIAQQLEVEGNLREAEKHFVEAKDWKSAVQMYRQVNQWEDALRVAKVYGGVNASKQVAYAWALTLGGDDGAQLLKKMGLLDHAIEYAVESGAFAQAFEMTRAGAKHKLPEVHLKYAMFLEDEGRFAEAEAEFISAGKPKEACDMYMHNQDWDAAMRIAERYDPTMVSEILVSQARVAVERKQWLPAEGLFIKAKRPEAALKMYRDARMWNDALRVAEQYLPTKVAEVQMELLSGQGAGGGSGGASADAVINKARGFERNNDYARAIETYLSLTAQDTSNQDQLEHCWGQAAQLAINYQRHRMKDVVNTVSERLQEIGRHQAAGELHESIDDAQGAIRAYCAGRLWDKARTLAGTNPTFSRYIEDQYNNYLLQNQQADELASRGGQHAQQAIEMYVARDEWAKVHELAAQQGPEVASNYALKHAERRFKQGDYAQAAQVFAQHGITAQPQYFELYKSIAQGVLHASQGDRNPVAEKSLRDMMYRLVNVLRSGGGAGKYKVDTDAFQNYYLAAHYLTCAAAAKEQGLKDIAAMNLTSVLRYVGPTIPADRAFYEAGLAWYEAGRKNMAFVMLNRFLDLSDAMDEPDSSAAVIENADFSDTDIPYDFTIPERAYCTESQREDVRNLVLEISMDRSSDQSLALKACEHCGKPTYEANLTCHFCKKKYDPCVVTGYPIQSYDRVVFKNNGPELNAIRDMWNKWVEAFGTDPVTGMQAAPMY
Assay: affinity purification with mass spectrometry; 30 μM His-CrIFT172_(968-C) immobilised on TALON beads, incubated with 1 mg C. reinhardtii flagella extract in HMSK buffer (10 mM HEPES pH 7.4, 5 mM MgSO4, 4% sucrose, 25 mM KCl) at 4 °C for 2 hr; washed with 30 mM imidazole, eluted with 300 mM imidazole; His-TEV protease as control; TMT mass spectrometry, hits FDR <5% and fold-change ≥100%; only the target purified

- binding: binds
Substance: UBX-domain containing protein (CHLRE_06g293900v5) (from UniProt A0A2K3DQG3 1-684)
